Record: PubChem BioAssay AID1224828 (NIAID, 2016)

Screen: 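Regulators linking TLR4 signalling to p65 nuclear translocation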 (primary screen)
System: mouse RAW264.7 G9 macrophage reporter cells (GFP-p65, Tnf promoter-mCherry)
Knock-down reagent: siRNA pool against mouse genes, 100 nM
Time to read-out: 2 days siRNA transfection, then 40 min LPS before fixation
Treatment: LPS (Salmonella minnesota R595) at 10 ng/ml
Detection: 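Microscopy ratio of nuclear to perinuclear-ring GFP-p65 signal, scaled to the plate median; gene score is the average of two replicate robust z-scores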
Scale: p65 translocation robust z-score: higher = more nuclear NF-kappaB p65 after LPS than the plate median; nuclear/cytoplasmic p65 ratio: higher = more nuclear NF-kappaB p65
Active means: 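Active if robust z is above 3.3 (negative regulators) or below -1.56, the Tlr4 control median (positive regulators); activity score 50 or more; control wells not called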
Calls: active = hit (p65 shift raised or lowered); inactive = no clear change
The whole screen tested about 17,000 reagents; this is a part drawn at random. In the full data, 762 (4.5%) are marked active. 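Active calls include both raised and lowered p65 entry, mostly lowered; wells with fewer than 50 cells lack a z-score.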 The raw values are shown without normalisation. Reagents against one gene are numbered here. No sequences are given here.

target gene,reagent no.,p65 translocation robust z-score,"nuclear/cytoplasmic p65 ratio, rep 1","nuclear/cytoplasmic p65 ratio, rep 2",low cell count flag,call
Rnf168 (ring finger protein 168),1,,1.1,1.17,fewer than 50 cells per well; well left out of scoring,inactive
Gpr34 (G protein-coupled receptor 34),1,-0.35,1.43,1.56,enough cells to score,inactive
"Supt5 (suppressor of Ty 5, DSIF elongation factor subunit)",1,-0.18,1.5,1.45,enough cells to score,inactive
Btbd16 (BTB domain containing 16),1,-1.38,1.27,1.19,enough cells to score,inactive
"Egflam (EGF-like, fibronectin type III and laminin G domains)",1,0.15,1.49,1.66,enough cells to score,inactive
Nabp2 (nucleic acid binding protein 2),1,-0.02,1.41,1.45,enough cells to score,inactive
Dhdh (dihydrodiol dehydrogenase),1,,1.25,1.23,fewer than 50 cells per well; well left out of scoring,inactive
Stra6 (stimulated by retinoic acid gene 6),1,,1.14,1.07,fewer than 50 cells per well; well left out of scoring,inactive
Zfp532 (zinc finger protein 532),1,-0.06,1.45,1.48,enough cells to score,inactive
Cdh2 (cadherin 2),1,-0.24,1.42,1.36,enough cells to score,inactive
Or51a24 (olfactory receptor family 51 subfamily A member 24),1,0.37,1.49,1.29,enough cells to score,inactive
"Pip5k1a (phosphatidylinositol-4-phosphate 5-kinase, type 1 alpha)",1,,,1.03,fewer than 50 cells per well; well left out of scoring,inactive
Bptf (bromodomain PHD finger transcription factor),1,0.24,1.49,1.41,enough cells to score,inactive
Zfr (zinc finger RNA binding protein),1,,1.5,1.05,fewer than 50 cells per well; well left out of scoring,inactive
Bex3 (brain expressed X-linked 3),1,-0.1,1.42,1.41,enough cells to score,inactive
Spry1 (sprouty RTK signaling antagonist 1),1,,1.68,1.62,fewer than 50 cells per well; well left out of scoring,inactive
Kcnj10,1,,1.27,1.2,fewer than 50 cells per well; well left out of scoring,inactive
Cebpz (CCAAT/enhancer binding protein zeta),1,-0.9,1.29,1.31,enough cells to score,inactive
Dock8 (dedicator of cytokinesis 8),1,,1.18,1.37,fewer than 50 cells per well; well left out of scoring,inactive
Dock8 (dedicator of cytokinesis 8),2,-0.35,1.32,1.43,enough cells to score,inactive
Angpt2 (angiopoietin 2),1,-0.83,1.51,1.48,enough cells to score,inactive
Tyro3 (TYRO3 protein tyrosine kinase 3),1,0.49,1.91,1.34,enough cells to score,inactive
Ints3 (integrator complex subunit 3),1,0.03,1.63,1.75,enough cells to score,inactive
Prr9 (proline rich 9),1,,1.27,1.3,fewer than 50 cells per well; well left out of scoring,inactive
Rpl9 (ribosomal protein L9),1,,1.63,1.23,fewer than 50 cells per well; well left out of scoring,inactive
"Fabp3 (fatty acid binding protein 3, muscle and heart)",1,0.31,1.58,1.35,enough cells to score,inactive
Sirt2 (sirtuin 2),1,1.18,1.65,1.79,enough cells to score,inactive
"Scube1 (signal peptide, CUB domain, EGF-like 1)",1,-0.96,1.31,1.1,enough cells to score,inactive
Zw10 (zw10 kinetochore protein),1,0.6,1.6,1.69,enough cells to score,inactive
Frmd4a (FERM domain containing 4A),1,-0.3,1.36,1.46,enough cells to score,inactive
Amacr (alpha-methylacyl-CoA racemase),1,0.51,1.73,1.67,enough cells to score,inactive
Csmd1 (CUB and Sushi multiple domains 1),1,-0.73,1.4,1.74,enough cells to score,inactive
AI504432 (expressed sequence AI504432),1,1.4,1.78,1.94,enough cells to score,inactive
Ero1b (endoplasmic reticulum oxidoreductase 1 beta),1,,1.48,1.63,fewer than 50 cells per well; well left out of scoring,inactive
Mrps16 (mitochondrial ribosomal protein S16),1,0.62,2.01,1.58,enough cells to score,inactive
Dnajc18 (DnaJ heat shock protein family (Hsp40) member C18),1,,1.27,1.45,fewer than 50 cells per well; well left out of scoring,inactive
B4galt3,1,0.13,1.59,1.87,enough cells to score,inactive
Utp25 (UTP25 small subunit processome component),1,,1.27,1.5,fewer than 50 cells per well; well left out of scoring,inactive
Or5b101 (olfactory receptor family 5 subfamily B member 101),1,0.83,1.65,1.6,enough cells to score,inactive
Lrwd1 (leucine-rich repeats and WD repeat domain containing 1),1,0.41,1.41,1.47,enough cells to score,inactive
Epc2 (enhancer of polycomb homolog 2),1,1.84,1.85,1.68,enough cells to score,inactive
Rraga (Ras-related GTP binding A),1,0.57,1.61,1.56,enough cells to score,inactive
Snrnp48 (small nuclear ribonucleoprotein 48 (U11/U12)),1,2.53,1.77,1.89,enough cells to score,inactive
Gpr15 (G protein-coupled receptor 15),1,0.09,1.51,1.6,enough cells to score,inactive
"Man2b2 (mannosidase 2, alpha B2)",1,-0.83,1.28,1.29,enough cells to score,inactive
Mvb12b (multivesicular body subunit 12B),1,,1.63,1.6,fewer than 50 cells per well; well left out of scoring,inactive
Gpx1 (glutathione peroxidase 1),1,0.97,1.54,1.52,enough cells to score,inactive
"Cyp24a1 (cytochrome P450, family 24, subfamily a, polypeptide 1)",1,0.61,1.64,1.92,enough cells to score,inactive
Srrm3 (serine/arginine repetitive matrix 3),1,,1.13,1.42,fewer than 50 cells per well; well left out of scoring,inactive
"Alms1 (ALMS1, centrosome and basal body associated)",1,0.6,1.75,1.67,enough cells to score,inactive
Afmid (arylformamidase),1,,1.42,1.34,fewer than 50 cells per well; well left out of scoring,inactive
Amh (anti-Mullerian hormone),1,-0.48,1.57,1.53,enough cells to score,inactive
Bmx (BMX non-receptor tyrosine kinase),1,-0.23,1.69,1.32,enough cells to score,inactive
A030003K21Rik (RIKEN cDNA A030003K21 gene),1,,1.18,1.21,fewer than 50 cells per well; well left out of scoring,inactive
Fmr1nb (Fmr1 neighbor),1,,1.35,1.26,fewer than 50 cells per well; well left out of scoring,inactive
Il36a (interleukin 36A),1,-0.55,1.56,1.28,enough cells to score,inactive
Cuedc2 (CUE domain containing 2),1,-0.13,1.47,1.85,enough cells to score,inactive
"Akr1c6 (aldo-keto reductase family 1, member C6)",1,-0.51,1.56,1.52,enough cells to score,inactive
Ebf4 (early B cell factor 4),1,-0.71,1.36,1.28,enough cells to score,inactive

5 consecutive records from above, quoted:
target gene,reagent no.,p65 translocation robust z-score,"nuclear/cytoplasmic p65 ratio, rep 1","nuclear/cytoplasmic p65 ratio, rep 2",low cell count flag,call
Bmx (BMX non-receptor tyrosine kinase),1,-0.23,1.69,1.32,enough cells to score,inactive
A030003K21Rik (RIKEN cDNA A030003K21 gene),1,,1.18,1.21,fewer than 50 cells per well; well left out of scoring,inactive
Fmr1nb (Fmr1 neighbor),1,,1.35,1.26,fewer than 50 cells per well; well left out of scoring,inactive
Il36a (interleukin 36A),1,-0.55,1.56,1.28,enough cells to score,inactive
Cuedc2 (CUE domain containing 2),1,-0.13,1.47,1.85,enough cells to score,inactive
